Some of these results come from one statement about several compounds together. At least one structure is not confirmed: it was looked up by name or label, or the drawing left a doubt.
Molecular target: T1, human beta 2 adrenoreceptor (Homo sapiens, UniProt P07550)
T1 construct: expressed in transfected cells; host or cells: frog melanophores
Assay: Frog melanophores transfected with the human beta 2 adrenoreceptor, pigment dispersal (Method 1)
Type: cell-based
Conditions: change in light transmittance after melatonin-induced pigment aggregation

Chains of the proteins cited; added tags and fusions are not shown.
UniProt P07550, whole entry: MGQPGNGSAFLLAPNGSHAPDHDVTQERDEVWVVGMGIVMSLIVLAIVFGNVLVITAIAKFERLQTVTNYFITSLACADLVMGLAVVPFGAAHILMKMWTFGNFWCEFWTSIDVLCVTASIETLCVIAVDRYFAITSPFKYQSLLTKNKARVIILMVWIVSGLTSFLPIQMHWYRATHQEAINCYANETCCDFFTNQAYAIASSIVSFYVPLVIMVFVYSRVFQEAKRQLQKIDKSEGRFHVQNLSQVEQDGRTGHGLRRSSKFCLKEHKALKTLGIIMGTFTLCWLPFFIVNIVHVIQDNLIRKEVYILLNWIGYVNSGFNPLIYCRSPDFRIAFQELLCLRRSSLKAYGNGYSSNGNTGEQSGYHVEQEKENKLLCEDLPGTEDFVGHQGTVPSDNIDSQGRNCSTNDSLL

SMILES	IC50
CC(=O)O.OCc1cc([C@@H](O)CNCCc2ccc3c(c2)O[C@H](COCc2ccccc2)CO3)ccc1O [Example 2, 4{(1R)-2-[(2-{(3R)-3-[(Benzyloxy)methyl]-2,3-dihydro-1,4-benzodioxin-6-yl}ethyl)amino]-1-hydroxyethyl}-2-(hydroxymethyl)phenol acetate]	< 1000 nM
CC(=O)O.OCc1cc(C(O)CNCCc2ccc3c(c2)OC(COCc2ccccc2)CO3)ccc1O [Example 3, 4-{(1R)-2-[(2-{(3S)-3-[(Benzyloxy)methyl]-2,3-dihydro-1,4-benzodioxin-6-yl}ethyl)amino]-1-hydroxyethyl}-2-(hydroxymethyl)phenol acetate]	< 1000 nM

Molecular target: T2, human beta-2 receptor (Homo sapiens, UniProt P07550)
T2 construct: expressed in transfected cells; host or cells: Chinese hamster ovary cells (whole cells or membranes derived from them)
Assay: Chinese hamster ovary cells co-expressing the human receptor with a reporter gene, cAMP measurement, whole cells or membranes (Method 2)
Type: cell-based
Conditions: CHO cells or membranes

SMILES	pEC50 at the human beta-2 receptor
CC(=O)O.OCc1cc([C@@H](O)CNCCc2ccc3c(c2)O[C@H](COCc2ccccc2)CO3)ccc1O [Example 2, 4{(1R)-2-[(2-{(3R)-3-[(Benzyloxy)methyl]-2,3-dihydro-1,4-benzodioxin-6-yl}ethyl)amino]-1-hydroxyethyl}-2-(hydroxymethyl)phenol acetate]	> 6
CC(=O)O.OCc1cc(C(O)CNCCc2ccc3c(c2)OC(COCc2ccccc2)CO3)ccc1O [Example 3, 4-{(1R)-2-[(2-{(3S)-3-[(Benzyloxy)methyl]-2,3-dihydro-1,4-benzodioxin-6-yl}ethyl)amino]-1-hydroxyethyl}-2-(hydroxymethyl)phenol acetate]	> 6
CC(=O)O.OCc1cc([C@@H](O)CNCCc2ccc3c(c2)O[C@H](COCc2ccc(Cl)nc2)CO3)ccc1O [Example 5, 4-((1R)-2-{[2-((3R)-3-{[(6-Chloropyridin-3-yl)methoxy]methyl}-2,3-dihydro-1,4-benzodioxin-6-yl)ethyl]amino}-1-hydroxyethyl)-2-(hydroxymethyl)phenol acetate]	> 6
CC(=O)O.OCc1cc([C@@H](O)CNCCc2ccc3c(c2)O[C@H](COCc2ccc(Cl)nc2Cl)CO3)ccc1O [Example 6, 4-((1R)-2-{[2-((3R)-3-{[(2,6-Dichloropyridin-3-yl)methoxy]methyl}-2,3-dihydro-1,4-benzodioxin-6-yl)ethyl]amino}-1-hydroxyethyl)-2-(hydroxymethyl)phenol acetate]	> 6
CC(=O)O.OCc1cc(C(O)CNCCc2ccc3c(c2)OCC(COCc2ccccc2)O3)ccc1O [Example 7, 4-{(1R)-2-[(2-{2-[(Benzyloxy)methyl]-2,3-dihydro-1,4-benzodioxin-6-yl}ethyl)amino]-1-hydroxyethyl}-2-(hydroxymethyl)phenol acetate]	> 6
CC(=O)O.OCc1cc(C(O)CNCCc2ccc3c(c2)OC(COCc2cncc(Br)c2)CO3)ccc1O [Example 8, 4-((1R)-2-{[2-((3R)-3-{[(5-Bromopyridin-3-yl)methoxy]methyl}-2,3-dihydro-1,4-benzodioxin-6-yl)ethyl]amino}-1-hydroxyethyl)-2-(hydroxymethyl)phenol acetate]	> 6
CC(=O)O.OCc1cc(C(O)CNCCc2ccc3c(c2)OC(COCc2cccc(SC4CCCC4)c2)CO3)ccc1O [Example 11, 4-[(1R)-2-({2-[(3R)-3-({[3-(Cyclopentylthio)benzyl]oxy}methyl)-2,3-dihydro-1,4-benzodioxin-6-yl]ethyl}amino)-1-hydroxyethyl]-2-(hydroxymethyl)phenol acetate]	> 6
CC(=O)O.O=S(=O)(c1cccc(COCC2COc3ccc(CCNCC(O)c4ccc(O)c(CO)c4)cc3O2)c1)C1CCCC1 [Example 12, 4-[(1R)-2-({2-[(3R)-3-({[3-(Cyclopentylsulfonyl)benzyl]oxy}methyl)-2,3-dihydro-1,4-benzodioxin-6-yl]ethyl}amino)-1-hydroxyethyl]-2-(hydroxymethyl)phenol acetate]	> 6
CC(=O)O.C[S+]([O-])c1ccc(-c2cncc(COCC3COc4ccc(CCNCC(O)c5ccc(O)c(CO)c5)cc4O3)c2)cc1 [Example 13, 2-(Hydroxymethyl)-4-{(1R)-1-hydroxy-2-[(2-{(3R)-3-[({5-[4-(methylsulfinyl)phenyl]pyridin-3-yl}methoxy)methyl]-2,3-dihydro-1,4-benzodioxin-6-yl}ethyl)amino]ethyl}phenol acetate]	> 6
Cc1cc(C)cc(COCC2COc3ccc(CCNCC(O)c4ccc(O)c(CO)c4)cc3O2)c1.O=CO [Example 17, 4-((1R)-2-{[2-((3R)-3-{[(3,5-Dimethylbenzyl)oxy]methyl}-2,3-dihydro-1,4-benzodioxin-6-yl)ethyl]amino}-1-hydroxyethyl)-2-(hydroxymethyl)phenol formate]	> 6
CS(=O)(=O)c1cccc(COCC2COc3ccc(CCNCC(O)c4ccc(O)c(CO)c4)cc3O2)c1.O=CO [Example 19, 2-(Hydroxymethyl)-4-[(1R)-1-hydroxy-2-({2-[(3R)-3-({[3-(methylsulfonyl)benzyl]oxy}methyl)-2,3-dihydro-1,4-benzodioxin-6-yl]ethyl}amino)ethyl]phenol formate]	> 6
